These are yes or no findings as the source states them, for the method shown. Some binding calls cover weakened binding; strength is not graded here.
Columns and labels:
[1] = molecular target: LILRB3 expressed on cells (human) (UniProt O75022); experiment: flow cytometry on CHO-LILRB3 cells (CHO-RB3), titrated antibody, labelled anti-human Fc, gMFI
[2] = molecular target: LILRA1 expressed on cells (human) (UniProt O75019); experiment: flow cytometry on CHO-LILRA1 cells (CHO-RA1), titrated antibody, labelled anti-human Fc, gMFI
[3] = molecular target: LILRA6 expressed on cells (human) (UniProt Q6PI73); experiment: flow cytometry on CHO-LILRA6 cells (CHO-RA6), titrated antibody, labelled anti-human Fc, gMFI
[4] = molecular target: LILRB3 expressed on cells (human) (UniProt O75022); experiment: flow cytometry on CHO-LILRB3 cells
[5] = molecular target: LILRB3 expressed on cells (human) (UniProt O75022); experiment: flow cytometry on CHO-LILRB3 cells, titrated antibody, APC anti-hFc, gMFI
[6] = molecular target: LILRA1 expressed on cells (human) (UniProt O75019); experiment: flow cytometry on CHO-LILRA1 cells
[7] = molecular target: LILRA6 expressed on cells (human) (UniProt Q6PI73); experiment: flow cytometry on 293T cells transiently expressing LILRA6, antibody 5 µg/mL, APC anti-human Fc; gMFI as fold to IgG staining
[8] = molecular target: LILRB3 expressed on cells (human) (UniProt O75022); experiment: flow cytometry on transiently transfected 293T cells, 5 µg/mL antibody
[9] = molecular target: LILRA6 expressed on cells (human) (UniProt Q6PI73); experiment: as above
[10] = molecular target: LILRA1 expressed on cells (human) (UniProt O75019); experiment: as above
[11] = molecular target: LILRB3 expressed on cells (human) (UniProt O75022); experiment: flow cytometry on 293T cells transiently expressing LILRB3, antibody 5 µg/mL, APC anti-human Fc; gMFI as fold to IgG staining
[12] = molecular target: LILRA1 expressed on cells (human) (UniProt O75019); experiment: flow cytometry on 293T cells transiently expressing LILRA1, antibody 5 µg/mL, APC anti-human Fc; gMFI as fold to IgG staining
[13] = molecular target: LILRA6 expressed on cells (human) (UniProt Q6PI73); experiment: flow cytometry on CHO-LILRA6 cells

Amino acid sequences for entries named in this document (tags omitted). Residues count along the entry.
UniProt O75022, residues 24-631: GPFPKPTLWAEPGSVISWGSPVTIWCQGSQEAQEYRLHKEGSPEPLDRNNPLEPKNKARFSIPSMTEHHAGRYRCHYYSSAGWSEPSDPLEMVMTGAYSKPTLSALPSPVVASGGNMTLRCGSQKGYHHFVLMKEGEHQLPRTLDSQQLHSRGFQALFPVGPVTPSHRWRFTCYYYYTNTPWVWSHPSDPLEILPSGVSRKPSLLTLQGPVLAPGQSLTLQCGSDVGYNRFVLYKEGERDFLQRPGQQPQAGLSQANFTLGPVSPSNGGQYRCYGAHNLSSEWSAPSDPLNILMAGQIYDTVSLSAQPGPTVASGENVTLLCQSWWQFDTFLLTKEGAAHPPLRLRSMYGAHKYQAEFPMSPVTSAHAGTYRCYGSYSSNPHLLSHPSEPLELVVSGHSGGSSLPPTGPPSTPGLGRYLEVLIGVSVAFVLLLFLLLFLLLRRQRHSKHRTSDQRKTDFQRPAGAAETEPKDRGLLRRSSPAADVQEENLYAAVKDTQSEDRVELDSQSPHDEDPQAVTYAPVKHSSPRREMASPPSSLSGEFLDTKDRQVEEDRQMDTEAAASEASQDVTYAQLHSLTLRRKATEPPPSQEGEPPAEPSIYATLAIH
UniProt O75019, residues 17-489: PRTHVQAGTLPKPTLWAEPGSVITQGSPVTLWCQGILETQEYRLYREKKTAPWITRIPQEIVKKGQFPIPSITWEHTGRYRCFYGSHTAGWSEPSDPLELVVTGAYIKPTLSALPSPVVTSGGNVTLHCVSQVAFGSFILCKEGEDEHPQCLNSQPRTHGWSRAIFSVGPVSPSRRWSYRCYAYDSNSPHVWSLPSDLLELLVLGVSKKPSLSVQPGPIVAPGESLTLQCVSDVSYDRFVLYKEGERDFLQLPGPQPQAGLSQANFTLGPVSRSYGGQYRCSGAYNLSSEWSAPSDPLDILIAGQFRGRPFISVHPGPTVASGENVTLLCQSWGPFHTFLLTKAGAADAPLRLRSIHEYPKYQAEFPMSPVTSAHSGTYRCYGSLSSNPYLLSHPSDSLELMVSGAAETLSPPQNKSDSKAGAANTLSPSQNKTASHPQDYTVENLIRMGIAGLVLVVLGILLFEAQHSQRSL
UniProt Q6PI73, residues 24-481: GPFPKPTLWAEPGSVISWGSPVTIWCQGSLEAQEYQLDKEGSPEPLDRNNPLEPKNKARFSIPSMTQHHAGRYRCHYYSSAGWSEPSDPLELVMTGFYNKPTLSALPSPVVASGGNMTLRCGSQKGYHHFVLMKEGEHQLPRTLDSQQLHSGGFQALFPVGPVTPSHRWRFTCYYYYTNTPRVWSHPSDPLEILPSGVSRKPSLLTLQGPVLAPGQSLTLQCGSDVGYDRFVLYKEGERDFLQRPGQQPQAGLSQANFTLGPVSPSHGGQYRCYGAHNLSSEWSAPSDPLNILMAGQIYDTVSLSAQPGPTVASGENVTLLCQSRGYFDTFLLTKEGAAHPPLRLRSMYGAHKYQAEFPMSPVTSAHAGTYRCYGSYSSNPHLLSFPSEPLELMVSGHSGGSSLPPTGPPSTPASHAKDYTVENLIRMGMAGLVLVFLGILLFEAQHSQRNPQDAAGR

Measured: binding

B1: D2M002-002 (antibody, V domains shown)
VH: EVQLQQSGPELVKPGASVKMSCKASGYTFTRYVMHWVKQKPGQGLEWIGYINPNNDGTKYNEKFKGKVTLTSDKSSSTAYMELSSLTSEDSAVYYCARGDLEILPYYDHARNAMDYWGQGTSVTVSS
VL: DVQMIQSPASLSASVGETVTITCRASENIYSYLAWYQQKQGKSPQLLVYNAKTLAEGVPSRFSGSGSGTQFSLKINSLQPEDFGSYYCQHFWSTPPTFGGGTKLEIK
binds: [1] | [2] | [3] | [4] | [5] | [6] | [7] | [8] | [9] | [10] | [11] | [12] | [13]
